Measurements from paper PMC7364817.
Results are given in words; binding and its absence hold for the method and conditions named. In cells and extracts the contact can be indirect. Here binding means that the protein was enriched with, or labelled near, the bait; the list need not be complete. Where a sequence is shown, tags or fusion partners need not be part of it.

B1: COPB2 (protein, UniProt P35606 1-906)
chain: MPLRLDIKRKLTARSDRVKSVDLHPTEPWMLASLYNGSVCVWNHETQTLVKTFEVCDLPVRAAKFVARKNWVVTGADDMQIRVFNYNTLERVHMFEAHSDYIRCIAVHPTQPFILTSSDDMLIKLWDWDKKWSCSQVFEGHTHYVMQIVINPKDNNQFASASLDRTIKVWQLGSSSPNFTLEGHEKGVNCIDYYSGGDKPYLISGADDRLVKIWDYQNKTCVQTLEGHAQNVSCASFHPELPIIITGSEDGTVRIWHSSTYRLESTLNYGMERVWCVASLRGSNNVALGYDEGSIIVKLGREEPAMSMDANGKIIWAKHSEVQQANLKAMGDAEIKDGERLPLAVKDMGSCEIYPQTIQHNPNGRFVVVCGDGEYIIYTAMALRNKSFGSAQEFAWAHDSSEYAIRESNSIVKIFKNFKEKKSFKPDFGAESIYGGFLLGVRSVNGLAFYDWDNTELIRRIEIQPKHIFWSDSGELVCIATEESFFILKYLSEKVLAAQETHEGVTEDGIEDAFEVLGEIQEIVKTGLWVGDCFIYTSSVNRLNYYVGGEIVTIAHLDRTMYLLGYIPKDNRLYLGDKELNIISYSLLVSVLEYQTAVMRRDFSMADKVLPTIPKEQRTRVAHFLEKQGFKQQALTVSTDPEHRFELALQLGELKIAYQLAVEAESEQKWKQLAELAISKCQFGLAQECLHHAQDYGGLLLLATASGNANMVNKLAEGAERDGKNNVAFMSYFLQGKVDACLELLIRTGRLPEAAFLARTYLPSQVSRVVKLWRENLSKVNQKAAESLADPTEYENLFPGLKEAFVVEEWVKETHADLWPAKQYPLVTPNEERNVMEEGKDFQPSRSTAQQELDGKPASPTPVIVASHTANKEEKSLLELEVDLDNLELEDIDTTDINLDEDILDD
B2: ALDH18A1 (protein, UniProt P54886 1-795)
chain: MLSQVYRCGFQPFNQHLLPWVKCTTVFRSHCIQPSVIRHVRSWSNIPFITVPLSRTHGKSFAHRSELKHAKRIVVKLGSAVVTRGDECGLALGRLASIVEQVSVLQNQGREMMLVTSGAVAFGKQRLRHEILLSQSVRQALHSGQNQLKEMAIPVLEARACAAAGQSGLMALYEAMFTQYSICAAQILVTNLDFHDEQKRRNLNGTLHELLRMNIVPIVNTNDAVVPPAEPNSDLQGVNVISVKDNDSLAARLAVEMKTDLLIVLSDVEGLFDSPPGSDDAKLIDIFYPGDQQSVTFGTKSRVGMGGMEAKVKAALWALQGGTSVVIANGTHPKVSGHVITDIVEGKKVGTFFSEVKPAGPTVEQQGEMARSGGRMLATLEPEQRAEIIHHLADLLTDQRDEILLANKKDLEEAEGRLAAPLLKRLSLSTSKLNSLAIGLRQIAASSQDSVGRVLRRTRIAKNLELEQVTVPIGVLLVIFESRPDCLPQVAALAIASGNGLLLKGGKEAAHSNRILHLLTQEALSIHGVKEAVQLVNTREEVEDLCRLDKMIDLIIPRGSSQLVRDIQKAAKGIPVMGHSEGICHMYVDSEASVDKVTRLVRDSKCEYPAACNALETLLIHRDLLRTPLFDQIIDMLRVEQVKIHAGPKFASYLTFSPSEVKSLRTEYGDLELCIEVVDNVQDAIDHIHKYGSSHTDVIVTEDENTAEFFLQHVDSACVFWNASTRFSDGYRFGLGAEVGISTSRIHARGPVGLEGLLTTKWLLRGKDHVVSDFSEHGSLKYLHENLPIPQRNTN
B3: HPRT1 (protein, UniProt P00492 1-218)
chain: MATRSPGVVISDDEPGYDLDLFCIPNHYAEDLERVFIPHGLIMDRTERLARDVMKEMGGHHIVALCVLKGGYKFFADLLDYIKALNRNSDRSIPMTVDFIRLKSYCNDQSTGDIKVIGGDDLSTLTGKNVLIVEDIIDTGKTMQTLLSLVRQYNPKMVKVASLLVKRTPRSVGYKPDFVGFEIPDKFVVGYALDYNEYFRDLNHVCVISETGKAKYKA
B4: HSD17B4 (protein, UniProt P51659 1-736)
chain: MGSPLRFDGRVVLVTGAGAGLGRAYALAFAERGALVVVNDLGGDFKGVGKGSLAADKVVEEIRRRGGKAVANYDSVEEGEKVVKTALDAFGRIDVVVNNAGILRDRSFARISDEDWDIIHRVHLRGSFQVTRAAWEHMKKQKYGRIIMTSSASGIYGNFGQANYSAAKLGLLGLANSLAIEGRKSNIHCNTIAPNAGSRMTQTVMPEDLVEALKPEYVAPLVLWLCHESCEENGGLFEVGAGWIGKLRWERTLGAIVRQKNHPMTPEAVKANWKKICDFENASKPQSIQESTGSIIEVLSKIDSEGGVSANHTSRATSTATSGFAGAIGQKLPPFSYAYTELEAIMYALGVGASIKDPKDLKFIYEGSSDFSCLPTFGVIIGQKSMMGGGLAEIPGLSINFAKVLHGEQYLELYKPLPRAGKLKCEAVVADVLDKGSGVVIIMDVYSYSEKELICHNQFSLFLVGSGGFGGKRTSDKVKVAVAIPNRPPDAVLTDTTSLNQAALYRLSGDWNPLHIDPNFASLAGFDKPILHGLCTFGFSARRVLQQFADNDVSRFKAIKARFAKPVYPGQTLQTEMWKEGNRIHFQTKVQETGDIVISNAYVDLAPTSGTSAKTPSEGGKLQSTFVFEEIGRRLKDIGPEVVKKVNAVFEWHITKGGNIGAKWTIDLKSGSGKVYQGPAKGAADTTIILSDEDFMEVVLGKLDPQKAFFSGRLKARGNIMLSQKLQMILKDYAKL
B5: FKBP5 (protein, UniProt Q13451 1-457)
chain: MTTDEGAKNNEESPTATVAEQGEDITSKKDRGVLKIVKRVGNGEETPMIGDKVYVHYKGKLSNGKKFDSSHDRNEPFVFSLGKGQVIKAWDIGVATMKKGEICHLLCKPEYAYGSAGSLPKIPSNATLFFEIELLDFKGEDLFEDGGIIRRTKRKGEGYSNPNEGATVEIHLEGRCGGRMFDCRDVAFTVGEGEDHDIPIGIDKALEKMQREEQCILYLGPRYGFGEAGKPKFGIEPNAELIYEVTLKSFEKAKESWEMDTKEKLEQAAIVKEKGTVYFKGGKYMQAVIQYGKIVSWLEMEYGLSEKESKASESFLLAAFLNLAMCYLKLREYTKAVECCDKALGLDSANEKGLYRRGEAQLLMNEFESAKGDFEKVLEVNPQNKAARLQISMCQKKAKEHNERDRRIYANMFKKFAEQDAKEEANKAMGKKTSEGVTNEKGTDSQAMEEEKPEGHV
B6: AIMP2 (protein, UniProt Q13155 1-320)
chain: MPMYQVKPYHGGGAPLRVELPTCMYRLPNVHGRSYGPAPGAGHVQEESNLSLQALESRQDDILKRLYELKAAVDGLSKMIQTPDADLDVTNIIQADEPTTLTTNALDLNSVLGKDYGALKDIVINANPASPPLSLLVLHRLLCEHFRVLSTVHTHSSVKSVPENLLKCFGEQNKKQPRQDYQLGFTLIWKNVPKTQMKFSIQTMCPIEGEGNIARFLFSLFGQKHNAVNATLIDSWVDIAIFQLKEGSSKEKAAVFRSMNSALGKSPWLAGNELTVADVVLWSVLQQIGGCSVTVPANVQRWMRSCENLAPFNTALKLLK
B7: AIMP1 (protein, UniProt Q12904 1-312)
chain: MANNDAVLKRLEQKGAEADQIIEYLKQQVSLLKEKAILQATLREEKKLRVENAKLKKEIEELKQELIQAEIQNGVKQIPFPSGTPLHANSMVSENVIQSTAVTTVSSGTKEQIKGGTGDEKKAKEKIEKKGEKKEKKQQSIAGSADSKPIDVSRLDLRIGCIITARKHPDADSLYVEEVDVGEIAPRTVVSGLVNHVPLEQMQNRMVILLCNLKPAKMRGVLSQAMVMCASSPEKIEILAPPNGSVPGDRITFDAFPGEPDKELNPKKKIWEQIQPDLHTNDECVATYKGVPFEVKGKGVCRAQTMSNSGIK

Target: T1, FLAG-tagged SMCR8 (Smith-Magenis Syndrome Chromosome Region, Candidate 8) (UniProt Q8TEV9)
T1 sequence: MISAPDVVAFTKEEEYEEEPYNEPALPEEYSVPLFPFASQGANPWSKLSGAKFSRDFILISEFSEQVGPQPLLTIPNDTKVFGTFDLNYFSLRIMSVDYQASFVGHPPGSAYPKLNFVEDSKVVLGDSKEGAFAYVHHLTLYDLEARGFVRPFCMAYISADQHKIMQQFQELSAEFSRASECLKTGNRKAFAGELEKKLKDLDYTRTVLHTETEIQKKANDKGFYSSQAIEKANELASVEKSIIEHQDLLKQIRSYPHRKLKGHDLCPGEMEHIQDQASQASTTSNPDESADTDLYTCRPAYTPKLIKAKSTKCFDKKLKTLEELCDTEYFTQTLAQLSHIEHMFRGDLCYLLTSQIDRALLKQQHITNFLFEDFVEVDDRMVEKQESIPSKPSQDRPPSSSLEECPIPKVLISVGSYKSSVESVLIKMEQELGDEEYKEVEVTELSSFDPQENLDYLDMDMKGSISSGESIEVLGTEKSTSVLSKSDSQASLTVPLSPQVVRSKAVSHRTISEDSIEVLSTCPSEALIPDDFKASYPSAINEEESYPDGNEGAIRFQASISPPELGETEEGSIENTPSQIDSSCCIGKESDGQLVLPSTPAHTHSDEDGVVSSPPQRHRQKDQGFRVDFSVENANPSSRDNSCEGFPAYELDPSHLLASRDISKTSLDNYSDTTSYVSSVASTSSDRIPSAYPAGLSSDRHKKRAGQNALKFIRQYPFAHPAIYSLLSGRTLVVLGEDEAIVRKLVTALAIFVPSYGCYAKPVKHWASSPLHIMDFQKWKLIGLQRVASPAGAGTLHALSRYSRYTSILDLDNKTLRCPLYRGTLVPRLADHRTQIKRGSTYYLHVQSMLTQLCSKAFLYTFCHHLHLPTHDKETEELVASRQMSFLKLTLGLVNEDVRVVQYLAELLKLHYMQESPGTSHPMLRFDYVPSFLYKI
Experiment: affinity purification with mass spectrometry; FL-SMCR8, C9orf72-FL or empty vector transfected in HEK 293T; α-FLAG agarose IP from whole cell lysates with or without RNase; LC-MS/MS; hits with three or more spectra and not detected in vector only control

binding, binds:
B1, B2, B3, B4, B5, B6, B7
